Reference: publication PMC6929986

By UniProt entry, the sequences of proteins in these tests, tags left out. Residues count along the entry.
UniProt Q5VYY1: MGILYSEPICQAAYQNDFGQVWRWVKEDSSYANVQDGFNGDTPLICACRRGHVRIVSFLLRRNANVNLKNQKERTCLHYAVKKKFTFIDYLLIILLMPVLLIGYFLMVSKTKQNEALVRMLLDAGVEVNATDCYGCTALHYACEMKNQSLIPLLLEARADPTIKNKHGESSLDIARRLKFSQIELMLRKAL
UniProt P35579: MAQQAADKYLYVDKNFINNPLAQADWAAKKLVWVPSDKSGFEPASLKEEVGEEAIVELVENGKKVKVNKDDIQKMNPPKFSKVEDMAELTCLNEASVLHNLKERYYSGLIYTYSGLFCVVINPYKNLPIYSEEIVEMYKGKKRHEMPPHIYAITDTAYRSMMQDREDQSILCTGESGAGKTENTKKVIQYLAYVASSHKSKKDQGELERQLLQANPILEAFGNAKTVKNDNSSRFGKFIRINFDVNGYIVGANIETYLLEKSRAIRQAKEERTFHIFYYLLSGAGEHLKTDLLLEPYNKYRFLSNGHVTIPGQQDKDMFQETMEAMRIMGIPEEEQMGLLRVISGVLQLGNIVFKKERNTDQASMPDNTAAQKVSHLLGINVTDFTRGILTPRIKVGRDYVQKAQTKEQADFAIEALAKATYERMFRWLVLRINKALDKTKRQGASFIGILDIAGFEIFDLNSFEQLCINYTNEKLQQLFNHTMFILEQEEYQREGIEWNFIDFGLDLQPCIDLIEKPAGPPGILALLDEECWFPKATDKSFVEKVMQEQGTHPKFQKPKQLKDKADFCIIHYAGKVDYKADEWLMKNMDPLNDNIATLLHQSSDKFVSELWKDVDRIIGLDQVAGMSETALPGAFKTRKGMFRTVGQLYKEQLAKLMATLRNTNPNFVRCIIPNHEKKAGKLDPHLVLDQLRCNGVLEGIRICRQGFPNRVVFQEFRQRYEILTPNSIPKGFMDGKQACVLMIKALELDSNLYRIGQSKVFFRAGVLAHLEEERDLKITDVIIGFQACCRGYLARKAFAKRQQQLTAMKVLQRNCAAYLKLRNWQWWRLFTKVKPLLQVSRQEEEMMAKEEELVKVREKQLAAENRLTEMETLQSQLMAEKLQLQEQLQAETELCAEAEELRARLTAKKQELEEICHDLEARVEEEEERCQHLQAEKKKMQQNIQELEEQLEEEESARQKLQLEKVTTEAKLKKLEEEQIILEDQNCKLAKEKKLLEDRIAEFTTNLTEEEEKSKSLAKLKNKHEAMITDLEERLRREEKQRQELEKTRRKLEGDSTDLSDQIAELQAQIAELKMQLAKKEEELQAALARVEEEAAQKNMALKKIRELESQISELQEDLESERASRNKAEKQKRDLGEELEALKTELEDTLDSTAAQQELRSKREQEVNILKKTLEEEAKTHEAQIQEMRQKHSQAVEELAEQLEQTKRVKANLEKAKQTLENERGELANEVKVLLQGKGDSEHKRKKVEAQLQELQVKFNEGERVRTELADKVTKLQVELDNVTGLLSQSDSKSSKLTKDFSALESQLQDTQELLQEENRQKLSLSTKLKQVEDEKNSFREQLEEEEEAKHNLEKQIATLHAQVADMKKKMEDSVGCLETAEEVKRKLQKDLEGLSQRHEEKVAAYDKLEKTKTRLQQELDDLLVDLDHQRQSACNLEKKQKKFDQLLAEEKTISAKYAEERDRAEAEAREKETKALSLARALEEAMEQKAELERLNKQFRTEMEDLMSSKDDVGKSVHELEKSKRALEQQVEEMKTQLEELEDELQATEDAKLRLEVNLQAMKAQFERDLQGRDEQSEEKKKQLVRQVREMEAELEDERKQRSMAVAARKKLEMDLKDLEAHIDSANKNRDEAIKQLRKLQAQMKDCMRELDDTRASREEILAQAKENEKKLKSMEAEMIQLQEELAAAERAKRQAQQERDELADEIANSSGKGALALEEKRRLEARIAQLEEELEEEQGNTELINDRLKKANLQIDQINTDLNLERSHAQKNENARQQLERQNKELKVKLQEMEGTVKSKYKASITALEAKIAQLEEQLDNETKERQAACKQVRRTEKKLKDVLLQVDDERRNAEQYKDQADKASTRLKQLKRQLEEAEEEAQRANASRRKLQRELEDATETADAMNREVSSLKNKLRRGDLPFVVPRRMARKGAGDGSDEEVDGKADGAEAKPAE
UniProt Q15118, residues 29-436: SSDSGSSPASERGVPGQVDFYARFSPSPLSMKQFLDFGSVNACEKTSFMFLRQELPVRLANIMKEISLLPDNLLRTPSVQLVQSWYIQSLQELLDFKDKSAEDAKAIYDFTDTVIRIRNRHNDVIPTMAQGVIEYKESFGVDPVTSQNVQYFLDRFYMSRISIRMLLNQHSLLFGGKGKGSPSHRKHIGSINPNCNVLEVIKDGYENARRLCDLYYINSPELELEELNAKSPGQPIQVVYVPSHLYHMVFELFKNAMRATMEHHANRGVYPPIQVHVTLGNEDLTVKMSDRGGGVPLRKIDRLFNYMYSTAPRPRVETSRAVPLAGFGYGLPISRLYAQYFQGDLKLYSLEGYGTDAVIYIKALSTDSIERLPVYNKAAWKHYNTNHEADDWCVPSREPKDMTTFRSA

Columns and labels:
[1] = target: Halo-ANKRD22 fusion protein (Ankyrin repeat domain-containing protein 22 fused with Halo-tag) (UniProt Q5VYY1); assay: affinity purification with mass spectrometry; Halo-tag pull-down from the nuclear fraction of organoid-cultured SW620 and RKO cells stably expressing Halo-ANKRD22, mass spectrometry; eluent of a mixture of wild-type SW620 and RKO cells as negative control
[2] = target: Halo-ANKRD22 fusion protein (Ankyrin repeat domain-containing protein 22 fused with Halo-tag) (UniProt Q5VYY1); assay: affinity purification with mass spectrometry; Halo-tag pull-down: RIPA lysate of RKO cells stably expressing Halo-ANKRD22 (conventional 2D or organoid culture) on HaloLink resin, 60 min at RT, five washes, elution with 1% SDS; eluted proteins identified by reverse-phase HPLC with an ion-trap mass spectrometer; control cells as negative control
[3] = target: Halo-ANKRD22 fusion protein (Ankyrin repeat domain-containing protein 22 fused with Halo-tag) (UniProt Q5VYY1); assay: as above; remark: listed apart in the source

Q: How did the binding [1] turn out when Myosin-9 (from UniProt P35579 1-1960) was run?
A: The binding was “binds”.

Q: “pyruvate dehydrogenase kinase isoform 1 (PDK1) (from UniProt Q15118 29-436) (enzyme)” was tested. Which binding [2] did it give?
A: The binding was “binds”.

B1: Extended Synaptotagmin-1 (E-Syt1) (protein, UniProt Q9BSJ8 1-1104)
chain: MERSPGEGPSPSPMDQPSAPSDPTDQPPAAHAKPDPGSGGQPAGPGAAGEALAVLTSFGRRLLVLIPVYLAGAVGLSVGFVLFGLALYLGWRRVRDEKERSLRAARQLLDDEEQLTAKTLYMSHRELPAWVSFPDVEKAEWLNKIVAQVWPFLGQYMEKLLAETVAPAVRGSNPHLQTFTFTRVELGEKPLRIIGVKVHPGQRKEQILLDLNISYVGDVQIDVEVKKYFCKAGVKGMQLHGVLRVILEPLIGDLPFVGAVSMFFIRRPTLDINWTGMTNLLDIPGLSSLSDTMIMDSIAAFLVLPNRLLVPLVPDLQDVAQLRSPLPRGIIRIHLLAARGLSSKDKYVKGLIEGKSDPYALVRLGTQTFCSRVIDEELNPQWGETYEVMVHEVPGQEIEVEVFDKDPDKDDFLGRMKLDVGKVLQASVLDDWFPLQGGQGQVHLRLEWLSLLSDAEKLEQVLQWNWGVSSRPDPPSAAILVVYLDRAQDLPLKKGNKEPNPMVQLSIQDVTQESKAVYSTNCPVWEEAFRFFLQDPQSQELDVQVKDDSRALTLGALTLPLARLLTAPELILDQWFQLSSSGPNSRLYMKLVMRILYLDSSEICFPTVPGCPGAWDVDSENPQRGSSVDAPPRPCHTTPDSQFGTEHVLRIHVLEAQDLIAKDRFLGGLVKGKSDPYVKLKLAGRSFRSHVVREDLNPRWNEVFEVIVTSVPGQELEVEVFDKDLDKDDFLGRCKVRLTTVLNSGFLDEWLTLEDVPSGRLHLRLERLTPRPTAAELEEVLQVNSLIQTQKSAELAAALLSIYMERAEDLPLRKGTKHLSPYATLTVGDSSHKTKTISQTSAPVWDESASFLIRKPHTESLELQVRGEGTGVLGSLSLPLSELLVADQLCLDRWFTLSSGQGQVLLRAQLGILVSQHSGVEAHSHSYSHSSSSLSEEPELSGGPPHITSSAPELRQRLTHVDSPLEAPAGPLGQVKLTLWYYSEERKLVSIVHGCRSLRQNGRDPPDPYVSLLLLPDKNRGTKRRTSQKKRTLSPEFNERFEWELPLDEAQRRKLDVSVKSNSSFMSRERELLGKVQLDLAETDLSQGVARWYDLMDNKDKGSS
Q: For B1, which binding [3] is on record?
A: The binding was “binds”.

These are yes or no findings as the source states them, for the method shown. Binding seen in cells or lysates may run through a third protein. A yes stands for co-enrichment or nearness to the bait. Other partners may have been found. For part of these data: Where a sequence is shown, tags or fusion partners need not be part of it.
